{
  "sequences": {"note": "Amino acid sequences for entries named in this document (tags omitted).", "UniProt Q06330": "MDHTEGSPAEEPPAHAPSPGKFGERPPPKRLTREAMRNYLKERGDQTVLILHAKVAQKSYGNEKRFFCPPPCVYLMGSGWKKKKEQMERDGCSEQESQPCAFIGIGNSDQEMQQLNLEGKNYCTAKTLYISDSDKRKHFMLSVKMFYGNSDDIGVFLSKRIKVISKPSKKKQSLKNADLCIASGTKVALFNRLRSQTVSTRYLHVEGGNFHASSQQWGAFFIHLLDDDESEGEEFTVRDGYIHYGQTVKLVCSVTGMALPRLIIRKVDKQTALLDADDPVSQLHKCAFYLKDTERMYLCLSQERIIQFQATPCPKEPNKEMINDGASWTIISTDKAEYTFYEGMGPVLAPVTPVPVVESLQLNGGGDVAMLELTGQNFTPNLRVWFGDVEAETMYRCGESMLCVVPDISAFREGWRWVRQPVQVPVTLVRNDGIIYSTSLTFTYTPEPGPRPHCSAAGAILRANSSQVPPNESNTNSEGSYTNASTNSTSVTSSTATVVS", "UniProt Q8IZL2": "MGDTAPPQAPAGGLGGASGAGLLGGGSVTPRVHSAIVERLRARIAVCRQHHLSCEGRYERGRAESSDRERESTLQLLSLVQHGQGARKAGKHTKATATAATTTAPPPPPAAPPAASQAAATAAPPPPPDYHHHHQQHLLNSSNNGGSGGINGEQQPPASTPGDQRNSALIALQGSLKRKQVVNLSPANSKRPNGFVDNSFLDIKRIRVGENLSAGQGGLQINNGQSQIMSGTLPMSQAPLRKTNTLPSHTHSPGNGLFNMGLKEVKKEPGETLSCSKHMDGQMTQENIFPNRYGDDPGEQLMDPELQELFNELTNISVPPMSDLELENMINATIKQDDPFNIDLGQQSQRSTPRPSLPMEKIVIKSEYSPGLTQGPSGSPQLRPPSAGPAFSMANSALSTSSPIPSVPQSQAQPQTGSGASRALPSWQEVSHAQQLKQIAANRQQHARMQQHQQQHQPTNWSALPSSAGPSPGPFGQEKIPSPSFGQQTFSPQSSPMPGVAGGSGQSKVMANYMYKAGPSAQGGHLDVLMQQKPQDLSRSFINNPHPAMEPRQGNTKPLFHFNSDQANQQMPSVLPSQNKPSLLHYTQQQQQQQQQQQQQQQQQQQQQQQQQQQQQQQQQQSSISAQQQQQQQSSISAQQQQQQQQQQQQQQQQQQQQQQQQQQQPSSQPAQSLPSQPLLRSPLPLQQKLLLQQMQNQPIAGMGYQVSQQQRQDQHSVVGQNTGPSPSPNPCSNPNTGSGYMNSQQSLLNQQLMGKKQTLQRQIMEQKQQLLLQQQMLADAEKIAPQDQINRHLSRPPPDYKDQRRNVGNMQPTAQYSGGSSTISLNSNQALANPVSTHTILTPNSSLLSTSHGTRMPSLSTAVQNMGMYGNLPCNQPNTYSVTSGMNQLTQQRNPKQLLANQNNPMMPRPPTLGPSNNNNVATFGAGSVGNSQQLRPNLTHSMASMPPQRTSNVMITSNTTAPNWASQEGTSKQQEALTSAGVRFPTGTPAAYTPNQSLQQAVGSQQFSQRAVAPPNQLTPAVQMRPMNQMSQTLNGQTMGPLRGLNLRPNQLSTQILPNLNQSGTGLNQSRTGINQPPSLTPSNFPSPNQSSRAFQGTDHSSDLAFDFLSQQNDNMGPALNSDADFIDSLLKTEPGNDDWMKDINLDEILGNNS"},
  "source": "paper PMC7822850",
  "target": "RBPJ (human (endogenous in GBM cells)) (UniProt Q06330)",
  "assay": "co-IP; cell lysates in IP lysis buffer incubated with anti-RBPJ, anti-NICD, anti-MAML2 or anti-IgG (negative control) antibodies overnight at 4 °C; magnetic beads; western blot",
  "note": "No constants are given. Whether binding was seen depends on the method and setting. In cells and extracts the contact can be indirect. Some results given as binding are weak or reduced against the parent protein; the word gives no strength.",
  "data": [
    {"substance": "mastermind like transcriptional coactivator 2 (MAML2) (from UniProt Q8IZL2 1-1156)", "values": [
      {"measurement": "binding", "result": "binds"}
    ]}
  ]
}
